Some of the results follow. Repeats in this data set agree poorly, so a single value says little.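 The human kidney-derived cells carry a stably integrated construct of eight TEAD-binding elements driving luciferase, read by luminescence in a drug-repurposing library screen. A compound counts as a hit when its signal is more than five robust Z scores above the plate mean.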

This is an account of results in the supplement of paper PMC10735217.

The subject of the assay is HEK293A TEAD-LUC reporter. The assay can be described thus: TEAD-luciferase reporter activity (YAP activation), robust Z score vs plate; higher = stronger YAP/TEAD activation. As to conditions: 24 h.

On to `COC(=O)c1ccccc1NC(=O)CN(C)C`, for which the TEAD-luciferase reporter activity runs as follows: (compound concentration: 200 nM) inactive: -0.805; (compound concentration: 2 uM) inactive: 1.73; (compound concentration: 10 uM) inactive: 1.87.

As to `COc1ccc([C@@H]2[C@@H](CC[C@H](O)c3ccc(F)cc3)C(=O)N2c2ccc(CNC(=O)CCCCCCCCCCC(=O)NC[C@H](O)[C@@H](O)[C@H](O)[C@H](O)CO)cc2)cc1` [Canosimibe], the TEAD-luciferase reporter activity by setting is: (compound concentration: 200 nM) inactive: -0.425; (compound concentration: 2 uM) inactive: -0.54; (compound concentration: 10 uM) inactive: -0.879.

`c1ccc2c(CCNc3ccc(Nc4ccncc4)cc3)c[nH]c2c1` [serdemetan]: the TEAD-luciferase reporter activity (compound concentration: 200 nM) was inactive: -1.47, the TEAD-luciferase reporter activity (compound concentration: 2 uM) was inactive: 1.12 and the TEAD-luciferase reporter activity (compound concentration: 10 uM) was inactive: 3.65.

With `CCC[N+]12C3C[C@H](C4C(O)[C@]5(C[C@@H]41)c1ccccc1N(C)[C@@H]35)[C@H](CC)[C@H]2O` (stereo not given in full) [Prajmalium bitartrate], the TEAD-luciferase reporter activity is inactive: 0.707 (compound concentration: 200 nM), inactive: 0.682 (compound concentration: 2 uM) and inactive: 2.65 (compound concentration: 10 uM).

`COc1ccccc1SC[C@@H](C)CN[C@@H]1COc2ccccc2SC1`: the TEAD-luciferase reporter activity (compound concentration: 200 nM) is inactive: -1.33, the TEAD-luciferase reporter activity (compound concentration: 2 uM) is inactive: -0.669 and the TEAD-luciferase reporter activity (compound concentration: 10 uM) was inactive: 2.79.

Turning to `CCCCCCCCCCCCCCCCOCCCOP(=O)(O)CO[C@H](CO)Cn1ccc(N)nc1=O`, the TEAD-luciferase reporter activity is, setting by setting: (compound concentration: 200 nM) inactive: -0.66; (compound concentration: 2 uM) inactive: -0.538; (compound concentration: 10 uM) inactive: -0.342.

`COc1cc(N)c(Cl)cc1C(=O)NC1CCNCC1OC` (stereo not given) [Ticalopride]: the TEAD-luciferase reporter activity is, setting by setting: (compound concentration: 200 nM) inactive: 0.843; (compound concentration: 2 uM) inactive: -1.11; (compound concentration: 10 uM) inactive: -0.515.

As to `CCCCCCCCCC(=O)N[C@@H](Cc1c[nH]c2ccccc12)C(=O)N[C@H](CC(N)=O)C(=O)N[C@@H](CC(=O)O)C(=O)N[C@@H]1C(=O)NCC(=O)N[C@@H](CCCN)C(=O)N[C@@H](CC(=O)O)C(=O)N[C@H](C)C(=O)N[C@@H](CC(=O)O)C(=O)NCC(=O)N[C@H](CO)C(=O)N[C@@H]([C@H](C)CC(=O)O)C(=O)N[C@@H](CC(=O)c2ccccc2N)C(=O)O[C@@H]1C` [Daptomycin], the TEAD-luciferase reporter activity is, setting by setting: (compound concentration: 200 nM) inactive: -0.0228; (compound concentration: 2 uM) inactive: 0.215; (compound concentration: 10 uM) inactive: 1.01.

Regarding `COc1cc(CNCCC2CCOCC2)ccc1Oc1cnc(C(N)=O)cn1` [bevenopran], the TEAD-luciferase reporter activity reads like this: (compound concentration: 200 nM) inactive: -1.3; (compound concentration: 2 uM) inactive: 1.95; (compound concentration: 10 uM) inactive: 1.13.

As to `CC1(C)O[C@@H]2C[C@H]3[C@@H]4C[C@H](F)C5=CC(=O)C=C[C@]5(C)[C@@]4(F)[C@@H](O)C[C@]3(C)[C@]2(C(=O)CO)O1` [fluocinolone acetonide sustained-release implant], the TEAD-luciferase reporter activity (compound concentration: 2 uM) is inactive: 0.162.

With `CC1(C)O[C@@H]2C[C@H]3[C@@H]4C[C@H](F)C5=CC(=O)C=C[C@]5(C)[C@@]4(F)[C@@H](O)C[C@]3(C)[C@]2(C(=O)CO)O1`, the TEAD-luciferase reporter activity is inactive: -0.11 (compound concentration: 200 nM) and inactive: 0.735 (compound concentration: 10 uM).
